The values below are quoted from earlier work in patent US20150126603A1, “TREATMENT OF POULTRY, PIGS OR FISH FOR REDUCING THE FEED CONVERSION RATIO OR INCREASING THEIR BODYWEIGHT GAIN” (TAMINCO, priority 2012, published 2015).

This series relates to broiler chickens. To be noted: 0.5, 1 and 2% of β-alanine in feed for 4 weeks; cited from earlier work.

In the case of `NCCC(=O)O` [Beta-alanine, β-alanine], the “carnosine and anserine concentrations in the breast muscles” value is reported as “not influenced”; the taurine concentration result is on record as “significantly decreased”; the β-alanine concentration entry was “significantly increased”.
